Source: patent US20180265582A1

Biological target: modified human PD-1 protein M1 (human)
Experiment: flow cytometry, transiently transfected HeLa cells [M1]

binding: binds
B1: 137F2 (antibody, V domains shown)
VH: QVQLQQPGAELVRPGTSVKMSCKAAGYTFTNYWIGWIKQRPGHGLEWIGDIYPGGGYTNYNEKFKGKATLTADTSSSTAYMQVSSLTSEDTGIYYCARGYDFVLDRWGQGTSVTVSS
VL: DIVMSQSPSSLAVSTGEKVTMTCKSSQSLFNSETQKNYLAWYQQKPGQPPKLLIFWASTRESGVPDRFLGSGSGTDFTLTISSVQAEDLAVYYCKQSYTLRTFGGGTKLEIK

No constants are given. Whether binding was seen depends on the method and setting. Binding calls can cover weak binding; strength is not graded here.
